Data reported in paper PMC7819943, “Rice protein-binding microarrays: a tool to detect cis-acting elements near promoter regions in rice”.
Some of the results follow.

What follows are sequences tested against T1, OsSMF1 (Oryza sativa, UniProt Q6ZLB0 1-436) (assay: protein-binding microarray (RPBM); PBS, 2% BSA, 51.3 ng/ul salmon testes DNA, 50 uM zinc acetate, 200 nM TF, 25 C, 1 h; high values mean tight binding). Settings: protein: recombinant; tags: N-terminal polyhistidine and DsRed monomer fusion (pET32a); chain copies: 2; label: CyDye5-dUTP incorporated in the synthesized complementary strand; 3' TTTTT single-stranded linker to array surface; dsDNA, one strand shown.
T1 sequence: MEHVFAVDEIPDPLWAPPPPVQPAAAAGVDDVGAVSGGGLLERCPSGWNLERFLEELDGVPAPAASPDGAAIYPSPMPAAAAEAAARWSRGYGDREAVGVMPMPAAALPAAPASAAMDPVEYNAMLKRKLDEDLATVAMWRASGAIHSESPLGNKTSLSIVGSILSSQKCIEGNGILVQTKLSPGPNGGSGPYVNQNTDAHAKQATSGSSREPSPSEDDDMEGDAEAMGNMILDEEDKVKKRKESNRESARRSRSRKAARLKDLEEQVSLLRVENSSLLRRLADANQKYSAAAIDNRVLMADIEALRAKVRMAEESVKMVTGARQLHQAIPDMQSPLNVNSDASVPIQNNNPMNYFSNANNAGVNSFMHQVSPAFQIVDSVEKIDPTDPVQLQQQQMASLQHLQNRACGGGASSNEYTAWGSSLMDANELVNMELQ
Summary of the method: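 Ni–NTA purification followed expression in E. coli BL21-CodonPlus of transcription factors fused N-terminally to a polyhistidine tag and DsRed. At 200 nM in PBS with 2% BSA, salmon testes DNA and 50 µM zinc acetate, the protein was incubated for 1 h at 25 °C with a custom Agilent array that had been primer-extended with Cy5-dUTP and blocked with 2% BSA. After washing, the array was read on an Axon 4000B scanner. The binding signal is per-feature fluorescence intensity in arbitrary units.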

First: GGGGCGGATCTACAGTGTTAGCATCGGTGTCAGATGACACCGGAGTCACCTAGTGCAG
Second: AAGATATATTTTGCAGTCCGTGTCATTGTCCAAAACGTCACGGAGTCACCTAGTGCAG
The binding signal of the first is lower: 3460 fluorescence intensity (a.u.) for the first, 4260 fluorescence intensity (a.u.) for the second.

First: GTTTAGACGGGTTGGCGAAATCCACACCGTCCGTTAGAGACGGAGTCACCTAGTGCAG
Second: CTCTCAGGATTTCTGTGAGGACCTGAGTCAGAATTGATACCGGAGTCACCTAGTGCAG
The binding signal of the first is higher: 30800 fluorescence intensity (a.u.) for the first, 3770 fluorescence intensity (a.u.) for the second.

Compared with “CCCCGTGCACCAACGGGCGCAGAGCACACAGACGCGAACTCGGAGTCACCTAGTGCAG”, “GAATCTGACATGGTTACATTGCGGCACTGCTGTCAATGGACGGAGTCACCTAGTGCAG” is lower in binding signal: 36000 fluorescence intensity (a.u.) for the first, 3770 fluorescence intensity (a.u.) for the second.

First: ATGCAACTAACCCTTATCAGCATCATGTGCCTTTATCTCTCGGAGTCACCTAGTGCAG
Second: TGAAAGCCATTAAGCATATGTCATGTCAAGTTGATCTATACGGAGTCACCTAGTGCAG
The binding signal of the first is higher: 3580 fluorescence intensity (a.u.) for the first, 3160 fluorescence intensity (a.u.) for the second.

Going from “GCTATATTAAACATTTGCTAATGACAAATTAATTAGCTTACGGAGTCACCTAGTGCAG” to “GCATAATTTGCATAGAAATCGCGAGACGAATCTCTAATTACGGAGTCACCTAGTGCAG”, the binding signal rises from 14700 fluorescence intensity (a.u.) to 38300 fluorescence intensity (a.u.).

First: GGGTCACTAGCCCATGAAATGAACTCGAGCACTTGATCAGCGGAGTCACCTAGTGCAG
Second: CTGTCTGCTCAGTTTGGTGGGTTCTGCTCACCAGTCTCCCCGGAGTCACCTAGTGCAG
The binding signal of the first is lower: 3310 fluorescence intensity (a.u.) for the first, 3420 fluorescence intensity (a.u.) for the second.

Going from “GGACAGTTTTGGCGTGCCACGTAGTCTTATCTCTAGTGCACGGAGTCACCTAGTGCAG” to “GCTTGCTTGCTTGCATCCTCCTCACATTCACCACGAGGTTCGGAGTCACCTAGTGCAG”, the binding signal falls from 8670 fluorescence intensity (a.u.) to 3670 fluorescence intensity (a.u.).

First: TCGGGTTTTACAATTTTATGACATGGACTCCTACGCCATCCGGAGTCACCTAGTGCAG
Second: CTGACCCGGGGTGGAGTGGAGACGTGGAGTCGTTGGTGTTCGGAGTCACCTAGTGCAG
The binding signal of the first is higher: 6410 fluorescence intensity (a.u.) for the first, 4130 fluorescence intensity (a.u.) for the second.

First: ACCATAAAATGTTTAGGTGTTTCAACCGTGATTGTCTTCACGGAGTCACCTAGTGCAG
Second: AAATTTCCGTGCGTGACCCGTCATCTGCTAGTACTTGCTGCGGAGTCACCTAGTGCAG
The binding signal of the first is higher: 20200 fluorescence intensity (a.u.) for the first, 5470 fluorescence intensity (a.u.) for the second.

Going from “GCGTACGTCGGCATTGCAACGTGTGGCGCCAGTGGCGATCCGGAGTCACCTAGTGCAG” to “CCCCGGCCCCACCCGTCAGTGACGTGGAGGAATCCCCAAACGGAGTCACCTAGTGCAG”, the binding signal falls from 23200 fluorescence intensity (a.u.) to 11800 fluorescence intensity (a.u.).

Compared with “AGCACATGACGTCGGATGAAAATTTCTCGATCTTGTGCGTCGGAGTCACCTAGTGCAG”, “AATTCTCTCTCTCTACAGTCTAACACACATGCTGACAAAGCGGAGTCACCTAGTGCAG” is lower in binding signal: 10400 fluorescence intensity (a.u.) for the first, 3770 fluorescence intensity (a.u.) for the second.

Compared with “CCATCTACAGCCGAACTGACGTGCAACCTGGTAGCTCGCACGGAGTCACCTAGTGCAG”, “GCCTTAGTAATTTTGGTAAACTAATTGTTGATGTCATGTTCGGAGTCACCTAGTGCAG” is lower in binding signal: 5400 fluorescence intensity (a.u.) for the first, 4350 fluorescence intensity (a.u.) for the second.

First: GGATGTCACCAAGGGGCCGATCAAGATCGAAGTAAGCTAGCGGAGTCACCTAGTGCAG
Second: TAGCTTCGAGATGATGATGTGGTGGCCTATCTGATCCGCCCGGAGTCACCTAGTGCAG
The binding signal of the first is higher: 6300 fluorescence intensity (a.u.) for the first, 4840 fluorescence intensity (a.u.) for the second.

Compared with “CTACGTTCTACAGACGATCGATGGCTTCTGTCACTCTTCTCGGAGTCACCTAGTGCAG”, “AGAGAGCAACACGTGCGTGGACAAGTAGTGTACTGTAGCGCGGAGTCACCTAGTGCAG” is lower in binding signal: 23900 fluorescence intensity (a.u.) for the first, 6000 fluorescence intensity (a.u.) for the second.

First: ACCTTCATTGGATCTGCCTCCCTGCAAGCCTCTGCCTCAACGGAGTCACCTAGTGCAG
Second: TTTAAATTTGGATGAACCCATCGAAATTTCAGACATCTACCGGAGTCACCTAGTGCAG
The binding signal of the first is higher: 43300 fluorescence intensity (a.u.) for the first, 23900 fluorescence intensity (a.u.) for the second.

Compared with “TACACTCTTAGGTTCTGTATGCCTATTTTGGATCTTTCACCGGAGTCACCTAGTGCAG”, “GCTCCTCGCGCTGCTCATCATCCTCCCCTCCACGCCGCCGCGGAGTCACCTAGTGCAG” is lower in binding signal: 15000 fluorescence intensity (a.u.) for the first, 4730 fluorescence intensity (a.u.) for the second.

Going from “GCGTCTCCCGCCGCGGTGACCTCACCTCTCTTCCTCGCCGCGGAGTCACCTAGTGCAG” to “AATTAGCTAGTCTACCATGCAAACACATCACGTTGCTGCCCGGAGTCACCTAGTGCAG”, the binding signal rises from 3620 fluorescence intensity (a.u.) to 3750 fluorescence intensity (a.u.).

Going from “CAGGCTGCCCAGCTCTGACATGTCGTCCTCACTTGCCGCCCGGAGTCACCTAGTGCAG” to “GGCCATGTTGAATGACGCGTTGCTCTCCCTACTCTACGGACGGAGTCACCTAGTGCAG”, the binding signal rises from 5980 fluorescence intensity (a.u.) to 49100 fluorescence intensity (a.u.).

Compared with “AATCCTACATGCCAAATCACCTCATCTTATCTCATCTATTCGGAGTCACCTAGTGCAG”, “AAATTAGAACGATGTGACGGAAAAGTTAGAAGTTTGTGTGCGGAGTCACCTAGTGCAG” is lower in binding signal: 3430 fluorescence intensity (a.u.) for the first, 3200 fluorescence intensity (a.u.) for the second.

Going from “CTCCAGCTCTCGCCTCTCGCCTCGTCCTTGTTCGTCATCGCGGAGTCACCTAGTGCAG” to “TACTTTATCAAATCGCAATGTAACTATTGGTCACTCTATCCGGAGTCACCTAGTGCAG”, the binding signal falls from 6300 fluorescence intensity (a.u.) to 3170 fluorescence intensity (a.u.).

First: CATTACCGACTGACTACTAAATTTCGAGTCCTATTGATATCGGAGTCACCTAGTGCAG
Second: TGACTAAATCAATATATGATCATCCATTGCGTTGGCATCACGGAGTCACCTAGTGCAG
The binding signal of the first is lower: 3160 fluorescence intensity (a.u.) for the first, 3700 fluorescence intensity (a.u.) for the second.
